# Measurements taken from the supplement of paper PMC10849652.
# Sequences of proteins named here, by UniProt entry; tags and fusion partners are left off. A change or cut given only in a name is not applied to a line headed by its entry.
# UniProt Q01628, whole entry, looked up: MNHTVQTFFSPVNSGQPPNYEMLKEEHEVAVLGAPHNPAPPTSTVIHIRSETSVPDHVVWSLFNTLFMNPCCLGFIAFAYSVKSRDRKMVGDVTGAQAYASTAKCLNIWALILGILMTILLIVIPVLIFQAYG
# UniProt Q12906, whole entry, looked up: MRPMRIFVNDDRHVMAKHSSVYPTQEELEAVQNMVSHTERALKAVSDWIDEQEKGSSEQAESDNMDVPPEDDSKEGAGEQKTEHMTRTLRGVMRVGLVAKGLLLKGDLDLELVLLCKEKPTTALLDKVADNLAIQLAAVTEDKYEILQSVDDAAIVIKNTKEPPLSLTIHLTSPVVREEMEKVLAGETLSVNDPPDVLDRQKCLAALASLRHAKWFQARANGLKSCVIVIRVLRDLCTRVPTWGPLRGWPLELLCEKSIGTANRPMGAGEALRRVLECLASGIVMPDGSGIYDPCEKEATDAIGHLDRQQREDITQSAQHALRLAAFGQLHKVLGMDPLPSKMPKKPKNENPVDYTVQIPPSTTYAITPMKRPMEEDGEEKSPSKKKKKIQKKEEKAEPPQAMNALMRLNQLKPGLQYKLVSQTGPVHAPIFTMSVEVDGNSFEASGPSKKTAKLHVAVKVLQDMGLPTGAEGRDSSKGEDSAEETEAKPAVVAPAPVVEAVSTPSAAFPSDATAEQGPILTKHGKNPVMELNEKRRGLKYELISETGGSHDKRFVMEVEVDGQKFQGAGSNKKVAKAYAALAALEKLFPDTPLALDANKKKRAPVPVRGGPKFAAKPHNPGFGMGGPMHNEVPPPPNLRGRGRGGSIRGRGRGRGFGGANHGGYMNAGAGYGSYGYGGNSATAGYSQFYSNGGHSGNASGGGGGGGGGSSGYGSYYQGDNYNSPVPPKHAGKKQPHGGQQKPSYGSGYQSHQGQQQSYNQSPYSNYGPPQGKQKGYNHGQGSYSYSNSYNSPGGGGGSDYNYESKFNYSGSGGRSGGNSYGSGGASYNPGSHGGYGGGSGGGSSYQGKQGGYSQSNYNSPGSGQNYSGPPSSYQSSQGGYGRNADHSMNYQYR
# UniProt P01344, whole entry, looked up: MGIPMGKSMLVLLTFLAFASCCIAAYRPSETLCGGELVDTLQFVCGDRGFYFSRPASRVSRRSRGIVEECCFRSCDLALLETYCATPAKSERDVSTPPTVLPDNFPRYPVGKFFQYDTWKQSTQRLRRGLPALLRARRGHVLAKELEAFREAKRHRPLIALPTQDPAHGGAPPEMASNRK
# UniProt P50213: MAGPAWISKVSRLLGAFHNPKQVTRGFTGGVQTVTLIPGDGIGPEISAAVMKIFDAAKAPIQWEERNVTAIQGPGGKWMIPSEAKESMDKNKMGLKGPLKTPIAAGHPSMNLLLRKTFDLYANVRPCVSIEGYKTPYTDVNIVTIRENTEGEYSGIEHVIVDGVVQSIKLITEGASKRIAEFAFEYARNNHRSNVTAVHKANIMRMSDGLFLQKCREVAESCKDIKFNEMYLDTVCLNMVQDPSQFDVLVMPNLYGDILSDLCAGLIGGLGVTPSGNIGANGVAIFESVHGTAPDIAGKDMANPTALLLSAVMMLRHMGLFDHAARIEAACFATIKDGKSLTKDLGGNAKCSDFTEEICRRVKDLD
# UniProt P17181: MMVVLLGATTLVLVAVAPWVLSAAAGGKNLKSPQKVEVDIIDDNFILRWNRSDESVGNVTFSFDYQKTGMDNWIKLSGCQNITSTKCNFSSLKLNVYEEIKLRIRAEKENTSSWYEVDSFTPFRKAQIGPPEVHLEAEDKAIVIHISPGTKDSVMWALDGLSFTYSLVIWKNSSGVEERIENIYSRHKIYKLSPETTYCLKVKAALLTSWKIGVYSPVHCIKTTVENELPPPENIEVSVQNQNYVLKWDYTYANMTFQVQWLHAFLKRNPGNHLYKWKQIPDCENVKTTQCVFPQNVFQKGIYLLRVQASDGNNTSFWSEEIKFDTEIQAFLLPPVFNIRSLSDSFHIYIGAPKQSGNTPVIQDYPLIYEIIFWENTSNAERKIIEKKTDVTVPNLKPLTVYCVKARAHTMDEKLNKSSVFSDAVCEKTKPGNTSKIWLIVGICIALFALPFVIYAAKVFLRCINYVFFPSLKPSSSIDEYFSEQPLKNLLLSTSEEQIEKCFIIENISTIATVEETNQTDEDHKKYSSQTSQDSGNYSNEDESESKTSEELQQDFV
# UniProt Q9H2S9: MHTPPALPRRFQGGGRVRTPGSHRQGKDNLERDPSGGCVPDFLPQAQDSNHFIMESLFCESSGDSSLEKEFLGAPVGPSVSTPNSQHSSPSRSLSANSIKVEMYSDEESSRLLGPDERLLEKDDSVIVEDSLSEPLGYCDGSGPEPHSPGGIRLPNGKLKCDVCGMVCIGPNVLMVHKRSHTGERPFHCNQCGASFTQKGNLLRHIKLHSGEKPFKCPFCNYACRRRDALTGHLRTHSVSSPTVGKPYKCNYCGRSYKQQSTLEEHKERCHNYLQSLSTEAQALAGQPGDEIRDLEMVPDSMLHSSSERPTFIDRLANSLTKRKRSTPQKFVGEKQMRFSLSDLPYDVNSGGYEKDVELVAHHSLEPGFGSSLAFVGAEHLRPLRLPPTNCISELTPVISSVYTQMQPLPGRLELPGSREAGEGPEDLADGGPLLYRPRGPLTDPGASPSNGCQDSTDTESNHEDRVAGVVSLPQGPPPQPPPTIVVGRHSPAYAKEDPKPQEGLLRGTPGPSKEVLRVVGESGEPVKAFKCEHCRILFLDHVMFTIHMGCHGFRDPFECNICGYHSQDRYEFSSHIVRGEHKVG
# UniProt P17936, whole entry, looked up: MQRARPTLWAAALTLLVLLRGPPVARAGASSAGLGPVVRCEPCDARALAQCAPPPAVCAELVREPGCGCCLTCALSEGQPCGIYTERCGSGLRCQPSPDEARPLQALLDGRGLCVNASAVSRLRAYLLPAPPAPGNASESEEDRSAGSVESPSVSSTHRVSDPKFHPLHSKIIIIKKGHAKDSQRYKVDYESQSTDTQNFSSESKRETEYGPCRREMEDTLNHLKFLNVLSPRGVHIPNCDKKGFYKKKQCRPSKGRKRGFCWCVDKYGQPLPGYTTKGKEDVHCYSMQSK
# UniProt Q8NBZ0, whole entry, looked up: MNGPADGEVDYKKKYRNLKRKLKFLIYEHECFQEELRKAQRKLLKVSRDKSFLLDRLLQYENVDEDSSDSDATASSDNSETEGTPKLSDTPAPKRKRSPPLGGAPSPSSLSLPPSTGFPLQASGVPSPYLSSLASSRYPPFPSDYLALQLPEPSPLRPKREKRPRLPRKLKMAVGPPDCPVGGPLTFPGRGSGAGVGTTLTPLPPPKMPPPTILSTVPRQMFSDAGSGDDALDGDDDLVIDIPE
# UniProt Q75QN2, whole entry, looked up: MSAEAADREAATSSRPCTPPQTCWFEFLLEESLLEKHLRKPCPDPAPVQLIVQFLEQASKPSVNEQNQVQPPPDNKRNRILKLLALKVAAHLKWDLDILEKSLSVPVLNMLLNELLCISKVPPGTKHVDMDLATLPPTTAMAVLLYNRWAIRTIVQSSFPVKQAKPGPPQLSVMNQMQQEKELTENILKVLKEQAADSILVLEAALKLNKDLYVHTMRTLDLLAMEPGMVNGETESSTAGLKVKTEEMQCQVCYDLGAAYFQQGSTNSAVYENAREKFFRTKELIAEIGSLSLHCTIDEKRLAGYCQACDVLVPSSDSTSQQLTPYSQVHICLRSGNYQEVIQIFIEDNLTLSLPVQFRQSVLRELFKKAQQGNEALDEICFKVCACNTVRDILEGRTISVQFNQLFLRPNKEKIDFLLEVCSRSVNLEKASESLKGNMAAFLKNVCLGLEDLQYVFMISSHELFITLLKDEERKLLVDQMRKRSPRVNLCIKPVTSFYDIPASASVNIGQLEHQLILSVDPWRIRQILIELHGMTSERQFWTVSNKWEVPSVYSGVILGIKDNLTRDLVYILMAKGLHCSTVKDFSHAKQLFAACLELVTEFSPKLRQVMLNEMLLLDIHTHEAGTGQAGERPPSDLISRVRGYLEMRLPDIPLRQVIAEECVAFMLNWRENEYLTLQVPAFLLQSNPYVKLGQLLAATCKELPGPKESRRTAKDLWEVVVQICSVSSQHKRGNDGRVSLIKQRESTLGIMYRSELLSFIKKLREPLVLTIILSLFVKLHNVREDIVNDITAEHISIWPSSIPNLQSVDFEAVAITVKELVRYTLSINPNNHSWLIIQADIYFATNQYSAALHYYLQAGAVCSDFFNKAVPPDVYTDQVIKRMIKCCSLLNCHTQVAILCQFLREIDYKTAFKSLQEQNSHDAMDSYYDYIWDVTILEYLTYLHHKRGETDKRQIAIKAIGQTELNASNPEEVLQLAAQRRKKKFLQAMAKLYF
# UniProt P23677, whole entry, looked up: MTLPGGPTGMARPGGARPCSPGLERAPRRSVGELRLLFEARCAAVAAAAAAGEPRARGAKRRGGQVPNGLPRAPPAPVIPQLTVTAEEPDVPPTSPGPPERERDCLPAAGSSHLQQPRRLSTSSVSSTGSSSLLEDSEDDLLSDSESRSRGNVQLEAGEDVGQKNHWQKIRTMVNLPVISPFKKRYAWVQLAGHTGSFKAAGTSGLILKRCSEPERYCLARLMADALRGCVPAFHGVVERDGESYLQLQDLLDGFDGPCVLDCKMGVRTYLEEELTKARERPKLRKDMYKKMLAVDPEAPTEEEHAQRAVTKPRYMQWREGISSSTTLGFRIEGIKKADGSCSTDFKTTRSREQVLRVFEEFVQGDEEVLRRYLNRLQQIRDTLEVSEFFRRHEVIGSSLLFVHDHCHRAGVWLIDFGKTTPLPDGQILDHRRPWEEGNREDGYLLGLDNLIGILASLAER
# This is one part of the list.
# Legend:
# Assay in all cases: log2 fold change, soluble protein after heating vs DMSO (PISA); higher = thermal stabilisation; K562 cells, 10 uM, 30 min; active = over 0.2 and 3.5 SD of the protein, either way, in both replicates (recomputed)
# [1] = compound: COC1=CC=C(C=C1)CN2C=CC3=C2C=C(C=C3)C(=O)NO
# Method in brief: (§1)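 Soluble protein was defined as the supernatant after 21,000xg for 90 min. It came from K562 cells at 2×10^6 cells/mL given 10 μM compound for 30 min, heated in aliquots for 3 min across 48°C-58°C, pooled, and extracted in PBS with 0.5% NP-40 at 4°C, and was quantified by TMTpro 16plex LC-MS/MS with equalised channel sums. Thermal stability against control samples, from duplicates, is reported as log2 fold change.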
# [2] = compound: CON(C)C(=O)N1N=C(c2cc(F)ccc2F)S[C@@]1(CCCN)c1ccccc1 [filanesib]
# Method in brief: as §1
# [3] = compound: CO[C@H]1C[C@@H]2CC[C@@H](C)[C@@](O)(O2)C(=O)C(=O)N2CCCC[C@H]2C(=O)O[C@H]([C@H](C)C[C@@H]2CC[C@H](n3cnnn3)[C@H](OC)C2)CC(=O)[C@H](C)/C=C(\C)[C@@H](O)[C@@H](OC)C(=O)[C@H](C)C[C@H](C)/C=C/C=C/C=C/1C [zotarolimus]
# Method in brief: as §1
# [4] = compound: COc1cc(C(=O)O)ccc1NC(=O)[C@@H]1N[C@@H](CC(C)(C)C)[C@](C#N)(c2ccc(Cl)cc2F)[C@H]1c1cccc(Cl)c1F [idasanutlin]
# Method in brief: as §1
# [5] = compound: COc1cc(Nc2ncc3c(n2)-c2ccc(Cl)cc2C(c2c(F)cccc2OC)=NC3)ccc1C(=O)O [alisertib]
# Method in brief: as §1
# [6] = compound: COc1cc2nc(-c3cc(F)ccc3O)nc(N[C@@H]3CNC[C@H]3C(C)(C)O)c2cc1OC
# Method in brief: as §1
# [7] = compound: COc1cc2ncnc(Nc3ccc(F)c(Cl)c3)c2cc1OCCCN1CCOCC1 [gefitinib]
# Method in brief: as §1
# [8] = compound: COc1cccc2cc(-c3nc([C@H]4CC[C@H](C(=O)O)CC4)n4ncnc(N)c34)[nH]c12
# Method in brief: as §1
# [9] = compound: CS(=O)(=O)CCNCc1ccc(-c2ccc3ncnc(Nc4ccc(OCc5cccc(F)c5)c(Cl)c4)c3c2)o1 [lapatinib]
# Method in brief: as §1
# [10] = compound: CS(=O)(=O)c1ccc(-c2cnc(N)c(C(=O)Nc3ccccc3)n2)cc1
# Method in brief: as §1
# [11] = compound: C[C@@H](Oc1cc(-c2cnn(C3CCNCC3)c2)cnc1N)c1c(Cl)ccc(F)c1Cl [crizotinib]
# Method in brief: as §1
# [12] = compound: C[C@@H]1COCCN1C2=NC(=NC(=C2)C3(CC3)S(=O)(=O)C)C4=C5C=CNC5=CC=C4
# Method in brief: as §1
# [13] = compound: C[C@H](C1=CC=C(C=C1)C(=O)NC2=C3C=CNC3=NC=C2)N
# Method in brief: as §1
# [14] = compound: Cc1cc(SCc2sc(-c3ccc(C(F)(F)F)cc3)nc2C)ccc1OCC(=O)O
# Method in brief: as §1
# [15] = compound: Cc1ccc(-n2nc(C(C)(C)C)cc2NC(=O)Nc2ccc(OCCN3CCOCC3)c3ccccc23)cc1 [doramapimod]
# Method in brief: as §1
# [16] = compound: Cc1ccc(C(=O)N(CCCN)[C@@H](c2nc3cc(Cl)ccc3c(=O)n2Cc2ccccc2)C(C)C)cc1 [ispinesib]
# Method in brief: as §1
# [17] = compound: CS(=O)(=O)N1CCN(Cc2cc3nc(-c4cccc5[nH]ncc45)nc(N4CCOCC4)c3s2)CC1 [pictilisib]
# Method in brief: as §1
# [18] = compound: C[C@H](Nc1ncnc2nc[nH]c12)c1cc2cccc(Cl)c2c(=O)n1-c1ccccc1 [duvelisib]
# Method in brief: as §1
# [19] = compound: Cc1cc(Nc2cc(CN3CCOCC3)c3nc(C)c(Cc4ccc(Cl)cc4F)n3n2)n[nH]1 [gandotinib]
# Method in brief: as §1
# [20] = compound: Cc1cc(Nc2cc(N3CCN(C)CC3)nc(Sc3ccc(NC(=O)C4CC4)cc3)n2)n[nH]1 [tozasertib]
# Method in brief: as §1
Target,log2 fold change [1],log2 fold change [2],log2 fold change [3],log2 fold change [4],log2 fold change [5],log2 fold change [6],log2 fold change [7],log2 fold change [8],log2 fold change [9],log2 fold change [10],log2 fold change [11],log2 fold change [12],log2 fold change [13],log2 fold change [14],log2 fold change [15],log2 fold change [16],log2 fold change [17],log2 fold change [18],log2 fold change [19],log2 fold change [20]
IFITM3 (UniProt Q01628),inactive: 0.055,inactive: 0.008,inactive: 0.007,inactive: 0.07,inactive: -0.121,inactive: -0.017,inactive: 0.09,inactive: 0.089,inactive: 0.004,inactive: -0.038,inactive: -0.027,inactive: 0.069,inactive: -0.085,inactive: -0.094,inactive: 0.038,inactive: 0.07,–,–,–,–
ILF3 (UniProt Q12906),inactive: 0.033,inactive: 0.156,–,–,inactive: -0.203,–,inactive: -0.13,inactive: 0.045,–,inactive: -0.152,inactive: -0.201,inactive: -0.284,–,–,inactive: 0.026,–,–,–,–,–
IGF2 isoform 3 (UniProt P01344),inactive: 0.041,–,–,–,–,–,–,–,–,–,inactive: -0.07,–,–,inactive: 0.03,inactive: -0.13,–,–,–,–,–
IDH3A isoform 2 (UniProt P50213),inactive: 0.32,–,inactive: -0.056,inactive: -0.246,–,–,inactive: 0.029,–,–,–,inactive: -0.206,–,inactive: -0.016,–,inactive: 0.051,–,–,–,–,–
ITPR3 (UniProt Q14573),inactive: 0.059,–,inactive: -0.02,–,–,–,–,–,–,–,inactive: -0.558,–,inactive: 0.251,–,inactive: 0.127,–,–,–,–,–
IFNAR1 (UniProt P17181),inactive: 0.109,inactive: 0.003,inactive: -0.249,–,inactive: -0.07,inactive: 0.114,inactive: -0.053,inactive: 0.046,inactive: -0.025,inactive: 0.076,inactive: -0.071,inactive: -0.02,inactive: 0.041,inactive: 0.044,inactive: 0.023,inactive: 0.059,inactive: -0.058,inactive: -0.025,inactive: -0.119,inactive: -0.034
IKZF4 (UniProt Q9H2S9),–,inactive: 0.06,inactive: 0.042,inactive: 0.09,–,inactive: -0.058,inactive: 0.119,–,inactive: -0.116,inactive: -0.119,–,inactive: -0.107,inactive: -0.086,inactive: 0.156,–,inactive: 0.104,inactive: 0.139,inactive: 0.095,inactive: -0.027,–
IMPDH2 (UniProt H0Y4R1),inactive: 0.061,–,–,inactive: -0.239,inactive: 0.16,inactive: -0.15,inactive: 0.016,inactive: -0.003,inactive: 0.091,–,inactive: 0.059,inactive: -0.21,–,–,inactive: 0.067,inactive: 0.031,inactive: -0.1,–,inactive: 0.198,inactive: -0.183
IGFBP3 isoform 2 (UniProt P17936),inactive: 0.176,inactive: -0.272,active: -1.02,inactive: 0.535,–,inactive: -0.103,–,–,inactive: 0.085,inactive: -0.097,inactive: -0.176,inactive: -0.063,inactive: -0.149,inactive: 0.027,inactive: -0.243,–,inactive: -0.085,–,inactive: -0.545,–
INO80E (UniProt Q8NBZ0),inactive: 0.011,–,–,inactive: 0.162,inactive: -0.036,inactive: 0.116,–,inactive: 0.005,inactive: 0.038,–,inactive: -0.041,–,–,–,inactive: 0.056,inactive: 0.023,inactive: 0.139,–,inactive: -0.059,inactive: -0.086
INTS8 (UniProt Q75QN2),inactive: 0.009,inactive: -0.262,inactive: -0.073,inactive: 0.001,–,inactive: 0.099,inactive: 0.261,–,inactive: 0.089,inactive: 0.019,inactive: -0.109,–,inactive: 0.097,inactive: 0.092,inactive: -0.091,inactive: 0.037,inactive: 0.04,inactive: 0.033,inactive: 0.091,inactive: 0.01
ITPKA (UniProt P23677),inactive: -0.312,inactive: -0.181,–,inactive: -0.235,inactive: -0.247,inactive: 0.119,inactive: 0.001,inactive: -0.061,inactive: -0.201,inactive: -0.037,inactive: 0.027,inactive: -0.034,–,inactive: 0.134,inactive: -0.068,inactive: -0.212,inactive: -0.169,inactive: -0.028,inactive: -0.381,inactive: -0.087

# Whole records, quoted from the list. Values in the order: log2 fold change [1] | log2 fold change [2] | log2 fold change [3] | log2 fold change [4] | log2 fold change [5] | log2 fold change [6] | log2 fold change [7] | log2 fold change [8] | log2 fold change [9] | log2 fold change [10] | log2 fold change [11] | log2 fold change [12] | log2 fold change [13] | log2 fold change [14] | log2 fold change [15] | log2 fold change [16] | log2 fold change [17] | log2 fold change [18] | log2 fold change [19] | log2 fold change [20]
# IFITM3 (UniProt Q01628) is listed as inactive: 0.055 | inactive: 0.008 | inactive: 0.007 | inactive: 0.07 | inactive: -0.121 | inactive: -0.017 | inactive: 0.09 | inactive: 0.089 | inactive: 0.004 | inactive: -0.038 | inactive: -0.027 | inactive: 0.069 | inactive: -0.085 | inactive: -0.094 | inactive: 0.038 | inactive: 0.07 | – | – | – | –
# IDH3A isoform 2 (UniProt P50213) is listed as inactive: 0.32 | – | inactive: -0.056 | inactive: -0.246 | – | – | inactive: 0.029 | – | – | – | inactive: -0.206 | – | inactive: -0.016 | – | inactive: 0.051 | – | – | – | – | –
